Earlier results in patent publication US7146278B2, “Method of selecting marker molecules for prediction of molecular activity” (Accelrys Software Inc., priority 2001, dated 2006).

Tested on: serum proteins
Settings: cited from earlier work

CN1C(=O)CN=C(c2ccccc2)c2cc(Cl)ccc21 [DIAZEPAM]
% Protein Bound (example training set of ten molecules): 98.7%
% PB (marker molecules, training set from Goodman & Gilman 9th ed.): 98.7%
